Test: Proteomic analysis of native murine pancreata and decelled pancreatic ECM (Table 1)
Parameters: species or system mouse
Details: for Pancreatic ECM: Mean of log2(intensities): abundance of the listed protein in decelled pancreatic ECM; for Native pancreas tissue: Mean of log2(intensities): abundance of the listed protein in native murine pancreas tissue

| Molecule | Mean of log2(intensities) (Native pancreas tissue) [a.u.] | Mean of log2(intensities) (Pancreatic ECM (decelled)) [a.u.] | Pancreatic ECM: Mean of log2(intensities) [a.u.] | Native pancreas tissue: Mean of log2(intensities) [a.u.] |
| --- | --- | --- | --- | --- |
| Q9DBY1 (protein, UniProt Q9DBY1 1-612, looked up, full-length) MFRTAVMMAASLALTGAVVAHAYYLKHQFYPTVVYLTKSSPSMAVLYIQAFVLVFLLGKVMGKVFFGQLRAAEMEHLLERSWYAVTETCLAFTVFRDDFSPRFVALFTLLLFLKCFHWLAEDRVDFMERSPNISWLFHCRIVSLMFLLGILDFLFVSHAYHSILTRGASVQLVFGFEYAILMTMVLTIFIKYVLHSVDLQSENPWDNKAVYMLYTELFTGFIKVLLYMAFMTIMIKVHTFPLFAIRPMYLAMRQFKKAVTDAIMSRRAIRNMNTLYPDATPEELQAVDNVCIICREEMVTGAKRLPCNHIFHTSCLRSWFQRQQTCPTCRMDVLRASLPAQSPPPPEPADQGPPPAPHPQPLLPQPPNFPQGLLPPFPPGMFPLWPPMGPFPPVPPPPSSGEAAAPPPTSTAVSRPSGAATTTAAGTSTSAPAPGSVPGPEAGPAPGFPFPPPWMGMPLPPPFAFPPMPVPPAGFAGLTPEELRALEGHERQHLEARLQSLRNIHTLLDAAMLQINQYLTVLASLGPPRPATSVNPTEETASTVVSAAPSTSAPSSEAPTPSPGASPPIPEAEKPPAPESVGIVEELPEDGEPDAAELRRRRLQKLESPVAH | 24.43 | 27.04 |  |  |
| Q8VHE0 (protein, UniProt Q8VHE0 1-760, looked up, full-length) MAGQQFQYDDSGNTFFYFLTSFVGLIVIPATYYLWPRDQNAEQIRLKNIRKVYGRCMWYRLRLLKPQPNIIPTVKKIVLLAGWALFLFLAYKVSKTDREYQEYNPYEVLNLDPGATVAEIKKQYRLLSLKYHPDKGGDEVMFMRIAKAYAALTDEESRKNWEEFGNPDGPQATSFGIALPAWIVDQKNSILVLLVYGLAFMVILPVVVGSWWYRSIRYSGDQILIRTTQIYTYFVYKTRNMDMKRLIMVLAGASEFDPQYNKDSTSRPTDNILIPQLIREIGSINLKKNEPPLTCPYSLKARVLLLSHLARMKIPETLEEDQQFMLKKCPALLQEMVNVICQLIIMARSREEREFRAPTLASLENCMKLSQMAVQGLQQFKSPLLQLPHIEEDNLRRVSNHKKYKIKTIQDLVSLKESDRHSLLHFLEDEKYEEVMAVLGSFPYVTMDIKSQVLDDEDSNNITVGSLVTVLVKLTRQTMAEVFEKEQSICAAEEQPTEDGQSDANKIKAKGGWQQKNKGPKKMPKSKKKKPLKKKPTTVPLPQAKQQKQKQANGVVGSEAAIKEEEDDISDKGSDSEEEETNRDSQSEKEDGSDRESDREQDEKQSKDDEAEWQELQQSIQRKERALLETKSKITHPVYSLYFPEEKQEWWWLYIADRKEQTLISMPYHVCTLKDTEEVELKFPAPGKPGNYQYTVFLRSDSYMGLDQIKPLKLEVHEAKPVPENHPQWDTAIEGDEDQEDSEGFEDSFEEEEEEEEGGD | 27.03 | 29.38 |  |  |
| Q925H6 (protein, UniProt Q925H6 1-87, looked up, full-length) MSHYSSYYGGLGYGYGSFGGPGCGCNSIRRLVGFGSGYGGFGYGSGFGGFGYGSGYGGYGYGSGFRGYGCGCRRPSCCGGYGFSSFY | 21.47 | 23.81 |  |  |
| P21981 (protein, UniProt P21981 1-686, looked up, full-length) MAEELLLERCDLEIQANGRDHHTADLCQEKLVLRRGQRFRLTLYFEGRGYEASVDSLTFGAVTGPDPSEEAGTKARFSLSDNVEEGSWSASVLDQQDNVLSLQLCTPANAPIGLYRLSLEASTGYQGSSFVLGHFILLYNAWCPADDVYLDSEEERREYVLTQQGFIYQGSVKFIKSVPWNFGQFEDGILDTCLMLLDMNPKFLKNRSRDCSRRSSPIYVGRVVSAMVNCNDDQGVLLGRWDNNYGDGISPMAWIGSVDILRRWKEHGCQQVKYGQCWVFAAVACTVLRCLGIPTRVVTNYNSAHDQNSNLLIEYFRNEFGELESNKSEMIWNFHCWVESWMTRPDLQPGYEGWQAIDPTPQEKSEGTYCCGPVSVRAIKEGDLSTKYDAPFVFAEVNADVVDWIRQEDGSVLKSINRSLVVGQKISTKSVGRDDREDITHTYKYPEGSPEEREVFTKANHLNKLAEKEETGVAMRIRVGDSMSMGNDFDVFAHIGNDTSETRECRLLLCARTVSYNGVLGPECGTEDINLTLDPYSENSIPLRILYEKYSGCLTESNLIKVRGLLIEPAANSYLLAERDLYLENPEIKIRVLGEPKQNRKLVAEVSLKNPLSDPLYDCIFTVEGAGLTKEQKSVEVSDPVPAGDLVKARVDLFPTDIGLHKLVVNFQCDKLKSVKGYRNVIIGPA |  |  | 30.23 | 26.99 |
| Q8CHJ2 (protein, UniProt Q8CHJ2 1-290, looked up, full-length) MASLNVSLCFFFATCAICEVARRASKALLPAGTYASFARGAVGAAQLAACCLEMRVLVELGPWAGGFGPDLLLTLVFLLFLVHGVTFDGASANPTVALQEFLMVEASLPNTLLKLSAQVLGAQAACALTQRCWAWELSELHLLQSLMAAHCSSTLRTSVLQGMLVEGACTFFFHLSLLHLQHSLLVYRVPALALLVTLMAYTAGPYTSAFFNPALAASVTFHCPGNTLLEYAHVYCLGPVAGMILAVLLHQGHLPRLFQRNLFYRQKSKYRTPRGKLSPGSVDAKMHKGE | 26.86 | 29.25 |  |  |
| Q6AW69 (protein, UniProt Q6AW69 1-1297, looked up, full-length) MELYFGEYQHVQQEYGVHLRLASGDTPKPRNSQPSKAGSYGVSIRVQGIDGHPYIVLNNTERCLAGTPFPENAPSFPSSVINNLSLHPSNGTVLKENTPEELQLPENPYLQTSPLRGQKQFSLHEGRNGVLERKDGPTKLPHVLNFQRHPELLQPYDPEKNEVNAKKHHPPESPWLRNATEDGTNCKKSRNCFPKSYGSQPNSPTSEDLAKTNMTAIRLCSSVVIEDPQKQTSVCVNVQRCAKEGVGEETLSPRRKSPTAPSPQAYSETKKNRPDVLPFRRQDSAGPILDGARSRRSSSSSTTPTSATSLYKFLLDDQECAIHADSVNRHENRRYIPFLPGTGRDIDTCSIPGVDQLIEKFDQKPGLQRRGRSGKRNRINPDDRKRSRSVDSAFPFGLQGNTEYLTEFSRNLGKSSEHLLRPSQVFPQRSVAQEHRGKHSPSSPPAKLQGAQGAHPKPPLQNKDGKVLNKGRQESTGACAPSLPAPNKKEEEIKIATATLMLQNRAVAATSDSGAKKISVKTFPSDSSTQATPDLLKGQQELTQQTNEETAKQILYNYLKEGGTDNEDATKRKVNLVFEKIQTLKSRAAGSAQGSNQAPNSPSEGNSLLDQKNKLILEVSELQQQLQLEMKNQQNIKEERERMREDLEELRVRHQSQVEETATLQRRLEESEGELRKSLEELFQVKMEREQHQTEIRDLQDQLSEMHDELDSTKRSEDREKGALIEELLQAKQDLQDLLIAKEEQEDLLRKRERELTALKGALKEEVSSHDQEMDKLKEQYDAELQALRESVEEATKNVEVLASRSNSSEQSQAEADLREKVLKEENEKLQGRIAELERRAAQLQRQMEDVKGDEAQAKETLRKCESEVQQLEEALVHARKEEKEATCARRALEKELEQARRELSQVSQEQKELLEKLRDEAEQKEQLRKLKNEMESERWHLDKTIEKLQKEMADIAEASRTSSLELQKQLGEYKEKNRRELAEMQTQLKEKCLEVEKARLAASKMQDELRLKEEELQDYQRAEEEALTKRQLLEQSLKDLEYELEAKSHLKDDRSRLIKQMEDKVSQLEIELEEERTNADLLSERITWSREQMEQMRSELLQEKAAKQDLECDKISLERQNKDLKSRIIHLEGSYRSSKEGLVVQMEARIAELEDRLENEERDRANLQLSNRRLERKVKELVMQVDDEHLSLTDQKDQLSLRLKAMKRQVEEAEEEIDRLESSKKKLQRELEEQMGVNEQLQGQLNSLKKGLRLKTLSSKVLDDSDDDDLSSDAGSLYEAPLSYAFPKDSTIASQI |  |  | 24.78 | 22.08 |
| Q99JY4 (protein, UniProt Q99JY4 1-376, looked up, full-length) MEGEEKPAQEADVEPVVTAGTSEAVPRVLAGDPQNISDVDAFNLLLEMKLKRRRERPNLPRTVTQLVAEDGSRVYVVGTAHFSDDSKRDVVKTIREVQPDVVVVELCQYRVSMLKMDERTLLREAKEVSLEKLQQAVRQNGLMSGLMQMLLLKVSAHITEQLGMAPGGEFREAFKEASKVPFCKFHLGDRPIPVTFKRAIAALSFWQKVKLAWGLCFLSDPISKDDVERCKQKDLLEQMMAEMIGEFPDLHRTIVSERDVYLTYMLRQAARRLELPRASDAEPRKCVPSVVVGVVGMGHVPGIEKNWSTDLNIQEIMTVPPPSISGRVSRVAVKAAFFGLLGYSLYWMGRRTLNLVLSLPAAQFCLQRVSEARPGR | 24.61 | 27.04 |  |  |
| O09110 (protein, UniProt O09110 1-347, looked up, full-length) MESPAASPPASLPQTKGKSKRKKDLRISCVSKPPVSNPTPPRNLDSRTFITIGDRNFEVEADDLVTISELGRGAYGVVEKVRHAQSGTIMAVKRIRATVNTQEQKRLLMDLDINMRTVDCFYTVTFYGALFREGDVWICMELMDTSLDKFYRKVLEKNMKIPEDILGEIAVSIVRALEHLHSKLSVIHRDVKPSNVLINKEGHVKMCDFGISGYLVDSVAKTMDAGCKPYMAPERINPELNQKGYNVKSDVWSLGITMIEMAILRFPYESWGTPFQQLKQVVEEPSPQLPADQFSPEFVDFTSQCLRKNPAERMSYLELMEHPFFTLHKTKKTDIAAFVKEILGEDS | 21.52 | 23.94 |  |  |
| Q99P58 (protein, UniProt Q99P58 1-218, looked up, full-length) MTDGDYDYLIKLLALGDSGVGKTTFLYRYTDNKFNPKFITTVGIDFREKRVVYDTQGADGASGKAFKVHLQLWDTAGQERFRSLTTAFFRDAMGFLLMFDLTSQQSFLNVRNWMSQLQANAYCENPDIVLIGNKADLPDQREVNERQARELAEKYGIPYFETSAATGQNVEKSVETLLDLIMKRMEKCVEKTQVPDTVNGGNSGKLDGEKPAEKKCAC | 24.23 | 26.89 |  |  |

From patent US20240108662A1, “ENGINEERED CELLS FUNCTIONALIZED WITH IMMUNE CHECKPOINT MOLECULES AND USES THEREOF” (The University of North Carolina at Chapel Hill, priority 2020, published 2024)
